This note sets out measurements from the RepoRT retention time repository.

This series in a line: HILIC, Waters ACQUITY UPLC BEH Amide, 100 × 2.1 mm, 1.7 µm; A: water + 0.125% formic acid + 10 mM ammonium formate; B: 5% water + 95% acetonitrile + 0.125% formic acid + 10 mM ammonium formate; gradient (min/%B) 0/100 2/100 7.7/70 9.5/40 10.25/30 12.75/100 17/100. To be noted: stereoisomer not certain.

Each structure is given as a SMILES string.

In the case of `Cc1c(C(=O)NN2CCCCC2)nn(-c2ccc(Cl)cc2Cl)c1-c1ccc(I)cc1` [AM-251], the LC retention time turned out to be 0.97 min. To `Cc1cccc(CCN2CCC(C(=O)c3ccc(NS(C)(=O)=O)cc3)CC2)n1` [E-4031] belongs 2.92 min.
